Experimental data taken from the supplement of paper PMC12889115.
Some of the results follow. These are raw signals, not scaled to a control.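 First-pass screen: polymyxin B was added at a level that permeabilizes the Salmonella outer membrane while sparing the inner membrane. DMSO wells, with and without polymyxin B, defined maximum growth. Because plates differed from one another, each plate's data were ranked separately and the compounds with the lowest OD600 were carried forward as hits.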

Tested on: Salmonella enterica serovar Typhimurium SL1344
Assay: bacterial growth OD600 after 18 h with compound and polymyxin B; higher = more bacterial growth (less inhibition)
Conditions: 50 µM, Mueller-Hinton broth

SMILES	bacterial growth OD600 (polymyxin B 0.75 µg/mL)	bacterial growth OD600 (polymyxin B 1 µg/mL)
CCc1ccc(CN2CCc3c(C(=O)N4CCCCC4C(=O)OC)c(OC)cc(=O)n3CC2)o1 (stereo not given)	0.838	–
OC(Cc1ccccc1)c1ccc2c(c1)CN(Cc1cccnc1)CCO2 (stereo not given)	0.986	–
Oc1cccc(CNC2COc3ccccc3C2)c1 (stereo not given)	–	0.817
O=C(CC1(c2ccccc2)CC(=O)N(CCc2ccccn2)C1=O)N1CCC(Cc2ccccc2)CC1 (stereo not given)	0.001	–
Cn1nc2c(c1C(=O)N1CCOc3ccc(CN4CCN(c5ccccc5)CC4)cc3C1)CCCC2	0.941	–
CN(C)C(=O)CCC(=O)NCc1cccnc1Oc1ccc(F)c(F)c1	–	1.23
COC(=O)c1ccc(C(=O)N(C)C2CCCN(Cc3ccccc3F)C2)cc1 (stereo not given)	–	0.974
Cn1cc(CCC(=O)NC2CC(=O)N(Cc3cccc(F)c3)C2)cn1 (stereo not given)	–	0.971
COc1ccc(N2CCN(C3CCCN(Cc4ccc(O)c(Cl)c4)C3)CC2)cc1 (stereo not given)	–	0.887
COc1cccc2c1OCC(NCc1ccc(C)cc1)C2 (stereo not given)	0.769	–
Cc1nc(N(C)C2CCCCC2)ncc1C(C)NCc1cnc(C)n1C (stereo not given)	0.774	–
COc1cccc2c1OCCCN(C(=O)c1ccc(-n3cc(NC(=O)c4cccnc4)cn3)cc1)C2	0.797	–
COc1ccccc1C1CN(CC(=O)NC(CCn2ccnc2)c2ccccc2)Cc2ccccc2O1 (stereo not given)	0.004	–
CCOC(=O)C1(Cc2ccccc2F)CCCN(C(=O)c2cnn(CC)c2)C1 (stereo not given)	–	0.825
CCOC(=O)C1(Cc2ccc(OC)cc2)CCN(C(=O)c2ccccc2OC)CC1	–	0.615
O=C(c1cc[n+]([O-])cc1)N1CCCC(CCc2cccc(F)c2)C1 (stereo not given)	0.768	–
CC1CN(CC(=O)N(CCO)Cc2ccccc2)Cc2cc(Cl)ccc2O1 (stereo not given)	0.52	–
OCC1(CCc2ccccc2)CCCN(Cc2ccc(O)c(Cl)c2)C1 (stereo not given)	0.748	–
CC(C)CN(C)c1ccc(C(=O)NCc2noc(C(C)C)n2)cn1	–	1.03
COC(=O)CC(NC1CCN(c2ccc(C(=O)NCCN3CCOCC3)cc2)CC1)C(=O)OC (stereo not given)	0.746	–
CCCN(CC1CC1)C(=O)CCC1(Cc2ccc3ccccc3c2)CCC(=O)N1 (stereo not given)	0.75	–
CCCN(CC1CCCO1)C(=O)C1CCCN(c2nc(C)c3ccc(S(C)(=O)=O)cc3n2)C1 (stereo not given)	0.009	–
O=C(c1ccc(N2CCC(NCC3CCCN(c4ncccn4)C3)CC2)cc1)N1CCOCC1 (stereo not given)	0.865	–
CCOC(=O)C1(Cc2ccccc2Cl)CCN(C(=O)c2cccs2)CC1	–	0.03
CCN(Cc1nccn1C)C(=O)c1ccc(NCc2cccc(C)c2)nc1	–	0.859
COc1cccc(CC(C2CCN(C(=O)c3cccc(C)c3C)CC2)N(C)C(=O)c2ccn(C)n2)c1 (stereo not given)	0.837	–
COCCN(CC1CCN(Cc2ccccc2F)CC1)C(=O)c1sc(C)nc1C	–	0.964
Cc1cc(C)n(CCCNC(=O)C2CCCN(C3CCN(C(C)C)CC3)C2)n1 (stereo not given)	0.904	–
Cc1cc(CN2CCC(n3nccc3NC(=O)C(C)(C)C)CC2)cc(C)c1O	–	1.24
Cc1ccc(-c2n[nH]cc2CNCc2cc(C(F)(F)F)ccc2F)cc1C	–	0.017

Record cards, as listed above:
O=C(CC1(c2ccccc2)CC(=O)N(CCc2ccccn2)C1=O)N1CCC(Cc2ccccc2)CC1 (stereo not given) reads bacterial growth OD600 (polymyxin B 0.75 µg/mL): 0.001
COCCN(CC1CCN(Cc2ccccc2F)CC1)C(=O)c1sc(C)nc1C reads bacterial growth OD600 (polymyxin B 1 µg/mL): 0.964
